The list is a part of this screen's results and no random one: it gathers tests that were run many times, whatever their T/C, doses with no T/C, and many T/C values between a quarter and a half above the control. Other doses and runs of a compound stand elsewhere. T/C: endpoint of the treated group in % of that of the vehicle group. Some doses have a count of surviving animals in place of a T/C: the source files T/C as zero there, which appears to mark a toxic dose or a test without result, not a measured value. Some survivor counts are full or nearly so, which does not show that the dose was tolerated: survival well below the control is almost never listed, so the zero probably covers shortened survival too. Counts of survivors are from the toxicity check (mostly the fifth day) where no day follows; animals may have died later. Schedule codes are those of the source, taken here to give the interval after Q, in days (D) or hours (H), and the number of doses after X. Where survival is the endpoint, this PubChem deposit counts one and a half times the control or more as active, and values a quarter to a half above the control carry no call in these data; other NCI protocols may use other cut-offs. Brackets with × stand for listed records that agree. Some T/C values carry the count of animals alive at the toxicity check (mostly the fifth day); where none is given, no animal had died by that day. Some entries were tested several times; the results are listed from low to high.
Tested on: BDF1 mice, P388 leukemia ip, median survival T/C
Experiment: NCI In Vivo Anticancer Drug Screen. Data for tumor model P388 Leukemia (intraperitoneal) in B6D2F1 (BDF1) mice
Settings: T/C endpoint: median survival time, higher T/C = longer survival
Description: The antitumor activity of compounds was measured in mice bearing transplantable tumors. Survival or tumor size were measured and the results are expressed as the measurement made in the treated group (T) divided by the measurement made in the vehicle treated control group (C). The tumor model used in this assay is P388 Leukemia (intraperitoneal) in B6D2F1 (BDF1) mice

[1] = dose: 37.5 mg/kg/injection, schedule: Q01DX009 (ip), vehicle: saline
[2] = dose: 75.0 mg/kg/injection, schedule: Q01DX009 (ip), vehicle: saline
[3] = dose: 150.0 mg/kg/injection, schedule: Q01DX009 (ip), vehicle: saline
[4] = dose: 100.0 mg/kg/injection, schedule: Q01DX010 (ip), vehicle: water
[5] = dose: 200.0 mg/kg/injection, schedule: Q01DX009 (ip), vehicle: saline with Tween-80
[6] = dose: 400.0 mg/kg/injection, schedule: Q01DX009 (ip), vehicle: saline with Tween-80
[7] = dose: 50.0 mg/kg/injection, schedule: Q01DX009 (ip), vehicle: saline
[8] = dose: 400.0 mg/kg/injection, schedule: Q01DX009 (ip), vehicle: saline sonified
[9] = dose: 100.0 mg/kg/injection, schedule: Q01DX009 (ip), vehicle: saline
[10] = dose: 200.0 mg/kg/injection, schedule: Q01DX009 (ip), vehicle: saline
[11] = dose: 12.5 mg/kg/injection, schedule: Q01DX009 (ip), vehicle: Klucel (hydroxypropylcellulose) (HPC)

`CC(=O)N1CCc2nc3ccccc3cc21` was tested, and the T/C [1] was 130 % of control, the T/C [2] was 125 % of control and the survivor count [3] was 5 of 6.
For `COC(=O)c1cccc(OC)c1C(=O)OC`, the survivor count (dose: 400.0 mg/kg/injection, schedule: Q04DX002 (ip), vehicle: saline with Tween-80) was 6 of 6.
For `NNC(=O)c1cnccn1`, the survivor count (dose: 20.0 mg/kg/injection, schedule: Q01DX010 (ip), vehicle: water) was 0 of 6, the survivor count [4] was 1 of 6 and the survivor count (dose: 120.0 mg/kg/injection, schedule: Q01DX010 (ip), vehicle: water) was 0 of 6. For the same molecule, the survivor count (dose: 140.0 mg/kg/injection, schedule: Q01DX010 (ip), vehicle: water) was 0 of 6.
For `O=C(/C=C/c1ccc(OCc2ccccc2)cc1)c1cccs1`, the survivor count [5] was 5 of 6.
With `CC(=O)O/C(C#N)=C1\CCCC\C1=C(\C#N)OC(C)=O` the survivor count (dose: 50.0 mg/kg/injection, schedule: Q01DX001 (ip), vehicle: saline with Tween-80) was 2 of 6 and the survivor count (dose: 100.0 mg/kg/injection, schedule: Q01DX001 (ip), vehicle: saline with Tween-80) was 0 of 6.
In the case of `O=C(O[Si](Cc1ccccc1)(Cc1ccccc1)Cc1ccccc1)N(CCCl)CCCl`, the survivor count (dose: 100.0 mg/kg/injection, schedule: Q04DX003 (ip), vehicle: saline with Tween-80) is reported as 6 of 6, the survivor count (dose: 200.0 mg/kg/injection, schedule: Q04DX003 (ip), vehicle: saline with Tween-80) is reported as 4 of 6 and the survivor count (dose: 400.0 mg/kg/injection, schedule: Q04DX003 (ip), vehicle: saline with Tween-80) is reported as 0 of 6.
In the case of `CCOC(=O)c1c[nH]n2c(=S)ncnc12`, the T/C [5] is reported as 127 % of control and the survivor count [6] is reported as 3 of 6.
For `O=[N+]([O-])c1ccc(N2CC2)c2c1no[n+]2[O-]`, the T/C (dose: 30.0 mg/kg/injection, schedule: Q04DX003 (ip), vehicle: saline with Tween-80) was 140 % of control and the T/C (dose: 60.0 mg/kg/injection, schedule: Q04DX003 (ip), vehicle: saline with Tween-80) was 131 % of control.
`COc1cc(N=Nc2ccc(O)c3ncccc23)c(OC)cc1N=Nc1ccc([N+](=O)[O-])cc1` was tested, and the survivor count (dose: 200.0 mg/kg/injection, schedule: Q01DX005 (ip), vehicle: saline with Tween-80) was 5 of 5.
With `NC(=O)c1nccnc1Cl` the survivor count [6] was 3 of 6.
With `O=C(Nc1ccc(C2=NCCN2)cc1)Nc1cccc(NC(=O)Nc2ccc(C3=NCCN3)cc2)c1` the T/C (dose: 480.0 mg/kg/injection, schedule: Q01DX010 (ip), vehicle: saline) was 125 % of control.
With `Cc1ccc(Sc2cccc3c(C)c4cccc5c4c(c23)C[S+]5c2ccc(C)cc2)cc1` (centres undefined) the T/C (dose: 1.5 mg/kg/injection, schedule: Q01DX009 (ip), vehicle: saline with Tween-80) was 125 % of control, the T/C (dose: 3.0 mg/kg/injection, schedule: Q01DX009 (ip), vehicle: saline with Tween-80) was 129 % of control and the survivor count (dose: 6.0 mg/kg/injection, schedule: Q01DX009 (ip), vehicle: saline with Tween-80) was 6 of 6.
`CCN(CC)P(=O)(N1CC1C)N1CC1C` (centres undefined) was tested, and the T/C (dose: 13.2 mg/kg/injection, schedule: Q01DX009 (ip), vehicle: saline) was 135 % of control, the T/C (dose: 18.7 mg/kg/injection, schedule: Q01DX009 (ip), vehicle: saline) was 135 % of control and the T/C (dose: 30.0 mg/kg/injection, schedule: Q01DX009 (ip), vehicle: saline) was 129 % of control. For the same molecule, the T/C [1] was 145 % of control, the T/C (dose: 45.0 mg/kg/injection, schedule: Q01DX009 (ip), vehicle: saline) was 146 % of control [5 of 6 alive] and the T/C (dose: 50.0 mg/kg/injection, schedule: Q04DX003 (ip), vehicle: saline) was 145 % of control. For the same molecule, the survivor count (dose: 60.0 mg/kg/injection, schedule: Q01DX009 (ip), vehicle: saline) was 6 of 6 and the survivor count [2] was 6 of 6.
`CCCCCCCCCCCCCCCCP(=O)(OCCOCCCCCC)OCCOCCCCCC` was tested, and the T/C (dose: 50.0 mg/kg/injection, schedule: Q01DX009 (ip), vehicle: alcohol) was 138 % of control, the survivor count [7] was 6 of 6 and the survivor count [2] was 6 of 6. The survivor count (dose: 330.0 mg/kg/injection, schedule: Q01DX001 (ip), vehicle: saline) was 3 of 6.
With `COc1cc(C=O)cc(O)c1O` the T/C [8] was 130 % of control and the survivor count [8] was 5 of 6.
With `C[N+]1=C2CCCCCC2=C(N)CC1` the survivor count (dose: 6.25 mg/kg/injection, schedule: Q04DX003 (ip), vehicle: saline sonified) was 6 of 6 and the survivor count (dose: 25.0 mg/kg/injection, schedule: Q04DX003 (ip), vehicle: saline sonified) was 6 of 6.
`N=C1SCc2ccc3ccccc3c21` was tested, and the T/C [5] was 131 % of control [5 of 6 alive] and the survivor count [6] was 2 of 6.
In the case of `CC(=O)CC(=O)Nc1nc2ccccc2s1`, the survivor count [9] is reported as 5 of 6.
For `CNNCc1ccc(C(=O)NC(N)=O)cc1`, the T/C [9] was 125 % of control, the T/C [10] was 148 % of control and the T/C (dose: 300.0 mg/kg/injection, schedule: Q01DX009 (ip), vehicle: saline) was 138 % of control.
In the case of `O=C(C[n+]1ccc2ccccc2c1)c1ccc(Br)cc1`, the survivor count (dose: 112.5 mg/kg/injection, schedule: Q04DX003 (ip), vehicle: saline) is reported as 1 of 6, the survivor count (dose: 115.0 mg/kg/injection, schedule: Q01DX009 (ip), vehicle: saline) is reported as 3 of 6 and the survivor count (dose: 170.0 mg/kg/injection, schedule: Q01DX009 (ip), vehicle: saline) is reported as 1 of 6. For the same molecule, the survivor count (dose: 225.0 mg/kg/injection, schedule: Q04DX003 (ip), vehicle: saline) was 0 of 6.
`O/N=C(\C[n+]1ccccc1)c1ccc2ccccc2c1` was tested, and the T/C (dose: 6.25 mg/kg/injection, schedule: Q01DX009 (ip), vehicle: saline) was 126 % of control, the T/C [11] was 140 % of control and the T/C (dose: 12.5 mg/kg/injection, schedule: Q01DX009 (ip), vehicle: saline) was 128 and 129 % of control. For the same molecule, the T/C (dose: 25.0 mg/kg/injection, schedule: Q01DX009 (ip), vehicle: saline) was 145 % of control and the survivor count [9] was 0 of 6.
In the case of `N#CO`, the survivor count [7] is reported as 6 of 6, the T/C [2] is reported as 136 % of control and the T/C [3] is reported as 127 % of control. For the same molecule, the survivor count [10] was 3 of 6.
In the case of `CN(C)C1C(=O)C(C(N)=O)=C(O)C2(O)C(=O)C3=C(O)c4c(O)cccc4C(C)(O)C3C(O)C12` (centres undefined), the T/C (dose: 50.0 mg/kg/injection, schedule: Q01DX010 (ip), vehicle: water) is reported as 127 and 127 % of control [5 of 6 alive], the T/C (dose: 75.0 mg/kg/injection, schedule: Q01DX010 (ip), vehicle: water) is reported as 127 % of control (2×) and the T/C [4] is reported as 136 % of control (3×). For the same molecule, the T/C (dose: 125.0 mg/kg/injection, schedule: Q01DX010 (ip), vehicle: water) was 136 and 145 % of control and the survivor count (dose: 200.0 mg/kg/injection, schedule: Q01DX010 (ip), vehicle: water) was 1 of 6.
`CCCCC(CC)(CC(=O)O)CC(=O)O` was tested, and the T/C (dose: 80.0 mg/kg/injection, schedule: Q01DX010 (ip), vehicle: water) was 127 % of control.
With `O=C(NNC(=O)c1ccc([N+](=O)[O-])cc1)c1ccccc1` the survivor count [11] was 6 of 6 and the survivor count (dose: 25.0 mg/kg/injection, schedule: Q01DX009 (ip), vehicle: Klucel (hydroxypropylcellulose) (HPC)) was 6 of 6.
In the case of `CC(=O)/C(=C\c1ccc(Cl)c(Cl)c1)C(=O)c1ccccc1`, the survivor count (dose: 400.0 mg/kg/injection, schedule: Q04DX003 (ip), vehicle: other) is reported as 6 of 6.
`CNC(=S)N/N=C/c1ccc([N+](=O)[O-])s1` was tested, and the survivor count (dose: 50.0 mg/kg/injection, schedule: Q01DX009 (ip), vehicle: saline with Tween-80) was 6 of 6, the survivor count (dose: 100.0 mg/kg/injection, schedule: Q01DX009 (ip), vehicle: saline with Tween-80) was 6 of 6 and the survivor count [5] was 6 of 6.
With `C=CC(=O)[O][Pb]([CH3])([CH3])[CH3]` the survivor count (dose: 3.0 mg/kg/injection, schedule: Q01DX009 (ip), vehicle: saline) was 6 of 6, the survivor count (dose: 6.0 mg/kg/injection, schedule: Q01DX009 (ip), vehicle: saline) was 6 of 6 and the survivor count (dose: 12.0 mg/kg/injection, schedule: Q01DX009 (ip), vehicle: saline) was 6 of 6.
